Measurements reported in PubChem BioAssay AID720505 (Drosophila RNAi Screening Center, 2013).
In all, the deposit lists about 20,000 reagents; shown is a random part of those with a known target gene and a result. In the full data, about 2,100 (10%) got an active call. 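Raw plate signals without normalisation; calls rest on control-based scores that were not deposited; replicate 2 separates called from uncalled poorly.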 Entries without a mark were called inactive. The numbers tell different reagents against one gene apart. Names joined by + are all predicted targets of the reagent. Not stated in the record: the amount of reagent, the time to read-out.

Test: 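Knock-downs that reduce calcium influx once internal stores are emptied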 (primary screen)
System: Drosophila S2R+ cells
Reagents: long dsRNA against Drosophila genes
Treatment: thapsigargin (2 µM) in calcium-free buffer to empty internal stores, then 2 mM calcium added back
Measured: 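Stores emptied by 2 µM thapsigargin without calcium, then 2 mM calcium re-added; fluo-4 fluorescence followed by FLIPR in 384-well plates, per-well averaged endpoint, raw; two screen passes, some wells retested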
Direction: calcium signal and retest calcium signal: higher = more calcium entry after store depletion
Active means: 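Knock-downs counted as hits when calcium entry dropped relative to STIM1 positive and Rho1 negative controls present on each plate; roughly 1500 genes called, with reductions of differing size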
Calls: active = called as lowering calcium entry; inactive = not called

Gene	dsRNA no.	calcium signal, replicate 1	calcium signal, replicate 2	retest calcium signal, replicate 1	retest calcium signal, replicate 2
Vm26Ac (GeneID 33828)	1	154	89.5		
TBC1D5 (GeneID 41628)	1	111	141		
Pgant3 (GeneID 35627)	1	193	93.6		
NimB4 (GeneID 34814)	1	90	134		
CG13110 (GeneID 34253)	1	125	189	89	119
CG13766 (GeneID 33922)	1	116	109		
CG4229 (GeneID 39840)	1	90.2	95.3		
Mdh1 (GeneID 34414)	1	164	167		
pkaap (GeneID 34957)	1	79.8	106		
tim (GeneID 33571)	1	128	307		
Tsp42A (GeneID 35515)	1	213	183		
CG43103 (GeneID 12798325)	1	154	97.4		
Pi3K21B (GeneID 33203)	1	77.7	189		
CG14042 + SP555	1	144	86.6		
CG14042 + SP555	2	142	99.1		
CG14947 (GeneID 34628)	1	99.1	157		
Oseg1 (GeneID 38957)	1	74.4 (active)	89.2		
frac (GeneID 38850)	1	103	118		
CG11700 (GeneID 31564)	1	29.9 (active)	43.1		
Pi3K68D (GeneID 39329)	1	134	74.3		
CG30088 (GeneID 246447)	1	182	133		
CG8298 (GeneID 36282)	1	112	244		
CG13869 + CG11099	1	127	114		
S-Lap7 (GeneID 36524)	1	131	133		
Rpn7 (GeneID 42641)	1	135	171		
mtg (GeneID 40970)	1	112	177		
ato (GeneID 40975)	1	63.7 (active)	142		
exd (GeneID 32567)	1	82.9	90		
CG4186 (GeneID 50107)	1	110	136		
gkt (GeneID 33530)	1	92.8	110		
flfl (GeneID 41675)	1	72.3 (active)	98.2		
CG17929 (GeneID 41978)	1	85.5	220		
CG15531 (GeneID 43592)	1	84.6	85.9		
beta4GalNAcTB (GeneID 43425)	1	177	135		

Copied from above (4 entries):
Gene	dsRNA no.	calcium signal, replicate 1	calcium signal, replicate 2	retest calcium signal, replicate 1	retest calcium signal, replicate 2
Vm26Ac (GeneID 33828)	1	154	89.5		
TBC1D5 (GeneID 41628)	1	111	141		
Pgant3 (GeneID 35627)	1	193	93.6		
NimB4 (GeneID 34814)	1	90	134		
